Binding data for three molecules are collected here from publication PMC8208988.

Results are given in words; binding and its absence hold for the method and conditions named. In cells and extracts the contact can be indirect. Some results given as binding are weak or reduced against the parent protein; the word gives no strength. Sequences can lack the tags named with a protein.

T1: FLAG-tagged MTERF4 (human) (UniProt Q7Z6M4)
T1 sequence: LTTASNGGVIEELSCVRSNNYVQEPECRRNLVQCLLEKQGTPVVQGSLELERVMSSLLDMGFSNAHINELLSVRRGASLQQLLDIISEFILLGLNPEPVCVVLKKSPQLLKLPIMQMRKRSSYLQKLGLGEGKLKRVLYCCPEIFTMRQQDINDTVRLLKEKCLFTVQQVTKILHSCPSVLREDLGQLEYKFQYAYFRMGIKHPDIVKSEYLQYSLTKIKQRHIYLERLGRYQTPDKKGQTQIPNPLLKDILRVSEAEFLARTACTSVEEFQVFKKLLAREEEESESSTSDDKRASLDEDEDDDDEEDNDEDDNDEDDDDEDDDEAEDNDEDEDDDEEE

B1: HA-tagged NSUN4 ΔN 26-36 (enzyme, UniProt Q96CB9)
chain: KFPAVRLALQNFDMTYSVQFGDLWPSIRVSLLSEQKYGALVNNFAAWDHVSAKLEQLSAKDFVNEAISHWELQSEGGQSAAPSPASWACSPNLRCFTFDRGDISRFPPARPGSLGVMEYYLMDAASLLPVLALGLQPGDIVLDLCAAPGGKTLALLQTGCCRNLAANDLSPSRIARLQKILHSYVPEEIRDGNQVRVTSWDGRKWGELEGDTYDRVLVDVPCTTDRHSLHEEENNIFKRSRKKERQILPVLQVQLLAAGLLATKPGGHVVYSTCSLSHLQNEYVVQGAIELLANQYSIQVQVEDLTHFRRVFMDTFCFFSSCQVGELVIPNLMANFGPMYFCKMRRLT
B2: HA-tagged NSUN4 triple mutant K215A, H218A, R275A (enzyme, UniProt Q96CB9 26-384)
chain: RYKKKWAATEPKFPAVRLALQNFDMTYSVQFGDLWPSIRVSLLSEQKYGALVNNFAAWDHVSAKLEQLSAKDFVNEAISHWELQSEGGQSAAPSPASWACSPNLRCFTFDRGDISRFPPARPGSLGVMEYYLMDAASLLPVLALGLQPGDIVLDLCAAPGGKTLALLQTGCCRNLAANDLSPSRIARLQAILASYVPEEIRDGNQVRVTSWDGRKWGELEGDTYDRVLVDVPCTTDRHSLHEEENNIFKASRKKERQILPVLQVQLLAAGLLATKPGGHVVYSTCSLSHLQNEYVVQGAIELLANQYSIQVQVEDLTHFRRVFMDTFCFFSSCQVGELVIPNLMANFGPMYFCKMRRLT
B3: HA-tagged NSUN4 quadruple mutant V65R, R136A, I139R, R141A (enzyme, UniProt Q96CB9 26-384)
chain: RYKKKWAATEPKFPAVRLALQNFDMTYSVQFGDLWPSIRRSLLSEQKYGALVNNFAAWDHVSAKLEQLSAKDFVNEAISHWELQSEGGQSAAPSPASWACSPNLRCFTFDAGDRSAFPPARPGSLGVMEYYLMDAASLLPVLALGLQPGDIVLDLCAAPGGKTLALLQTGCCRNLAANDLSPSRIARLQKILHSYVPEEIRDGNQVRVTSWDGRKWGELEGDTYDRVLVDVPCTTDRHSLHEEENNIFKRSRKKERQILPVLQVQLLAAGLLATKPGGHVVYSTCSLSHLQNEYVVQGAIELLANQYSIQVQVEDLTHFRRVFMDTFCFFSSCQVGELVIPNLMANFGPMYFCKMRRLT

The assay deals with T1, FLAG-tagged MTERF4 (human). Kind of assay: co-sedimentation; continuous 10-30% sucrose gradient of mitochondrial lysates (2% digitonin, 100 mM KCl, 20 mM MgCl2, 10 mM Tris-HCl pH 7.5) from HEK 293T cells co-expressing MTERF4-FLAG and an NSUN4-HA variant; fractions immunoblotted for HA, FLAG, bL12m, bS16m. A general note: A western blot detects proteins with antibodies after separation by electrophoresis.
With B1, the binding entry is on record as “binds”.
Then B2, with “binds”; and B3, with “no binding”.
